Data taken from the supplement of paper PMC10373366.
Counter-ions that a name gives are not always drawn. This is one part of the list. Single values are uncertain, as repeats are few or missing.

What follows are molecules tested on patient-derived ovarian cancer cells (PDC) (assay: cell growth inhibition ratio vs untreated control (CCK8); higher = stronger inhibition of cell viability). Settings: 10 µM; 48 h.
Experimental: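 Natural product library (Topscience) screened at 10 µM final concentration for 48 h on ovarian cancer A2780 cells and patient-derived ovarian cancer cells (PDC) in 96-well plates; viability read by CCK8 and reported as inhibition ratio (%) relative to untreated control. Single-dose primary screen.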

| SMILES | cell growth inhibition ratio [%] |
| --- | --- |
| O=C1C=CC[C@@H]2[C@H]3CCCN4CCC[C@@H](CN12)[C@@H]34 [Sophocarpine] | -16.4 |
| COC1=C[C@@H]2[C@@H]3Cc4ccc(OC)c(O)c4[C@]2(CCN3C)CC1=O [Sinomenine] | -4.82 |
| C[C@@H]1O[C@@H](O[C@H]2C[C@@H](O)[C@]3(CO)[C@H]4[C@H](O)C[C@]5(C)[C@@H](C6=CC(=O)OC6)CC[C@]5(O)[C@@H]4CC[C@]3(O)C2)[C@H](O)[C@H](O)[C@H]1O [Ouabain octahydrate] | 68.6 |
| COc1ccc(C=Cc2cc(OC)cc(OC)c2)cc1 [3,5,4'-Trimethoxystilbene] | 12.6 |
| COc1cc(OC)c(OC)cc1C=O [Asarylaldehyde] | -15.1 |
| C[C@]12CC[C@H](O)CC1=CC[C@@H]1[C@@H]2CC[C@]2(C)C(=O)CC[C@@H]12 [Dehydroepiandrosterone] | 12.1 |
| NCCc1c[nH]c2ccccc12 [Tryptamine] | -9.85 |
| O=C(O)C1C2CCC(O2)C1C(=O)O (stereo not given) [Sodium Demethylcantharidate] | 32.7 |
| C[C@H]1O[C@H](O[C@H]2[C@H](O)[C@@H](O)[C@@H](O)[C@H](O)[C@@H]2O)[C@@H](N)C[C@@H]1NC(=N)C(=O)O [Kasugamycin hydrochloride] | 5.38 |
| CN[C@@H]1[C@@H](O)[C@@H](O[C@@H]2[C@@H](O)[C@H](O[C@H]3O[C@H]([C@@H](C)O)[C@@H](O)[C@H](O)[C@H]3N)[C@@H](N)C[C@H]2N)OC[C@]1(C)O [Geneticin (G418 Sulfate)] | -8.14 |
| CN1[C@@H]2CC[C@H]1C[C@@H](OC(=O)C(CO)c1ccccc1)C2 (stereo not given in full) [Atropine] | 4.22 |
| CC(=O)OC12COC1CC(O)C1(C)C(=O)C(O)C3=C(C)C(O)CC(O)(C(OC(=O)c4ccccc4)C21)C3(C)C (stereo not given) [10-Deacetylbaccatin III] | 28.1 |
| CC[C@H]1CN2CC[C@H]1C[C@@H]2[C@@H](O)c1ccnc2ccc(OC)cc12 [Hydroquinidine] | -5.47 |
| C=C[C@H]1CN2CC[C@H]1C[C@H]2[C@H](O)c1ccnc2ccccc12 [Cinchonidine] | -6.46 |
| C[C@]12CC[C@H]3[C@@H](CCC4=CC(=O)CC[C@@]43C)[C@@H]1CC[C@@H]2O [Testosterone] | 18.6 |
| CC1=CC(=O)c2c(O)cccc2C1=O [Plumbagin] | -5.52 |
| C[C@]12CC[C@H](O)C[C@@H]1CC[C@@H]1[C@@H]2CC[C@]2(C)C(=O)CC[C@@H]12 [Epiandrosterone] | -8.03 |
| CN1[C@@H]2C[C@@H](OC(=O)[C@H](CO)c3ccccc3)C[C@H]1[C@@H]1O[C@@H]12 [Scopolamine HBr] | -17.2 |
| COc1cccc(C=O)c1OC [o-Veratraldehyde] | 6.26 |
| C=CCCCCCCCCC(=O)O[C@H]1CC[C@H]2[C@@H]3CCC4=CC(=O)C=C[C@]4(C)[C@H]3CC[C@]12C [Boldenone Undecylenate] | 6.22 |

Given bar-delimited: two of the compounds above
SMILES | cell growth inhibition ratio [%]
CC1=CC(=O)c2c(O)cccc2C1=O [Plumbagin] | -5.52
C[C@]12CC[C@H](O)C[C@@H]1CC[C@@H]1[C@@H]2CC[C@]2(C)C(=O)CC[C@@H]12 [Epiandrosterone] | -8.03
